This passage reports binding results from PMC8057602.

Results are given in words; binding and its absence hold for the method and conditions named. Binding can be weak; no strength is given.

In assay [1] the target is CcSSP1 homolog of S. shiraiana (Scleromitrula shiraiana). As to the kind of experiment: two-hybrid; in yeast; data not published; bait and prey not told.
In assay [2] the target is CcSSP1 (small secreted protein of Ciboria carunculoides), yeast two-hybrid bait in pGBKT7 (Ciboria carunculoides). As to the kind of experiment: two-hybrid; Matchmaker Gold yeast two-hybrid system; CcSSP1 in pGBKT7 as bait, candidates in pGADT7 as prey; SD/-His/-Leu/-Trp/-Ade and the same + X-alpha-Gal + 200 ng/ml AbA + 10 mM 3-AT.

B1: AtPR1 (PR1 in Arabidopsis thaliana), yeast two-hybrid prey (protein, UniProt P33154 1-161)
chain: MNFTGYSRFLIVFVALVGALVLPSKAQDSPQDYLRVHNQARGAVGVGPMQWDERVAAYARSYAEQLRGNCRLIHSGGPYGENLAWGSGDLSGVSAVNMWVSEKANYNYAANTCNGVCGHYTQVVWRKSVRLGCAKVRCNNGGTIISCNYDPRGNYVNEKPY
As for B1, the binding result in assay [1] and in assay [2] was “binds” each time.
